Like-named read-outs stand apart in the source and are kept apart here. These are yes or no findings as the source states them, for the method shown. In cells and extracts the contact can be indirect. Here binding means that the protein was enriched with, or labelled near, the bait; the list need not be complete.
T1: insulin inhibitory receptor (inceptor) (mouse (endogenous in testis)) (UniProt A2AFS3)
T1 sequence: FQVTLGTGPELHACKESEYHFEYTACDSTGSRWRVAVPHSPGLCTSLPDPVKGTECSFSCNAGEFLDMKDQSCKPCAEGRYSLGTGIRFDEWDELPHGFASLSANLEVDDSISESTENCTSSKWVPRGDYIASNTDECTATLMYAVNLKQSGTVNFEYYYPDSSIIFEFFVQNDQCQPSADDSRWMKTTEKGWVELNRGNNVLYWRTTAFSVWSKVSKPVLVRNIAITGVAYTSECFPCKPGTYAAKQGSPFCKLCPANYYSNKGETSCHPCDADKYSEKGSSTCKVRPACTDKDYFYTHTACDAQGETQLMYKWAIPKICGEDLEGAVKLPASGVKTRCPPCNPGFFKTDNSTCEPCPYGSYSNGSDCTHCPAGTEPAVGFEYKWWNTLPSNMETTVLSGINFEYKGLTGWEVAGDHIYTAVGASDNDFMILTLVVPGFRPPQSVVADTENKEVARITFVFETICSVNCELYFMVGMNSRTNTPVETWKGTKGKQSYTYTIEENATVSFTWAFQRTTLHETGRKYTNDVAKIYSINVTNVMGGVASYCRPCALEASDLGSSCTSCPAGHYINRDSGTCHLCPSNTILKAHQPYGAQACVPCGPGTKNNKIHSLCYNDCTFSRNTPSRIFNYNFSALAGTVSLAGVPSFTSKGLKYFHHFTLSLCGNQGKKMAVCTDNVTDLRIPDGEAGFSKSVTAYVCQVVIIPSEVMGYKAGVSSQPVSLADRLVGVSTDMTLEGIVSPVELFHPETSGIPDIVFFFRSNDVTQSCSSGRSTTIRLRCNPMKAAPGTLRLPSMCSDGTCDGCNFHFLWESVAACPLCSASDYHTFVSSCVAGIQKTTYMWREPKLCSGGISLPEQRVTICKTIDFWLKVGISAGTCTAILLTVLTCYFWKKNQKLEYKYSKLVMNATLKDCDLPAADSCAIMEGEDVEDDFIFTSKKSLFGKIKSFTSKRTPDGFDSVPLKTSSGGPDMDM

The chains behind the UniProt entries cited, without tags or fusion partners. Where a name states a change or a piece, a line headed by the entry shows the natural chain unless it says otherwise.
UniProt Q9WUU7: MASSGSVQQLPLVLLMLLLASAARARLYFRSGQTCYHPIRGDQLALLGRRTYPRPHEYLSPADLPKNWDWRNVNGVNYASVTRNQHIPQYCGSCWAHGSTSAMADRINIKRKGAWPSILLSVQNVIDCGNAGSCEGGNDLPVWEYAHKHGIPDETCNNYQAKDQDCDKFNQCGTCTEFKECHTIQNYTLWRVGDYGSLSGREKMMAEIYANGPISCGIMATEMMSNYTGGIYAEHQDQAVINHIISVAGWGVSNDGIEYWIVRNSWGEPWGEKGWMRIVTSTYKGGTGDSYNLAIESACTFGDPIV
UniProt P14873: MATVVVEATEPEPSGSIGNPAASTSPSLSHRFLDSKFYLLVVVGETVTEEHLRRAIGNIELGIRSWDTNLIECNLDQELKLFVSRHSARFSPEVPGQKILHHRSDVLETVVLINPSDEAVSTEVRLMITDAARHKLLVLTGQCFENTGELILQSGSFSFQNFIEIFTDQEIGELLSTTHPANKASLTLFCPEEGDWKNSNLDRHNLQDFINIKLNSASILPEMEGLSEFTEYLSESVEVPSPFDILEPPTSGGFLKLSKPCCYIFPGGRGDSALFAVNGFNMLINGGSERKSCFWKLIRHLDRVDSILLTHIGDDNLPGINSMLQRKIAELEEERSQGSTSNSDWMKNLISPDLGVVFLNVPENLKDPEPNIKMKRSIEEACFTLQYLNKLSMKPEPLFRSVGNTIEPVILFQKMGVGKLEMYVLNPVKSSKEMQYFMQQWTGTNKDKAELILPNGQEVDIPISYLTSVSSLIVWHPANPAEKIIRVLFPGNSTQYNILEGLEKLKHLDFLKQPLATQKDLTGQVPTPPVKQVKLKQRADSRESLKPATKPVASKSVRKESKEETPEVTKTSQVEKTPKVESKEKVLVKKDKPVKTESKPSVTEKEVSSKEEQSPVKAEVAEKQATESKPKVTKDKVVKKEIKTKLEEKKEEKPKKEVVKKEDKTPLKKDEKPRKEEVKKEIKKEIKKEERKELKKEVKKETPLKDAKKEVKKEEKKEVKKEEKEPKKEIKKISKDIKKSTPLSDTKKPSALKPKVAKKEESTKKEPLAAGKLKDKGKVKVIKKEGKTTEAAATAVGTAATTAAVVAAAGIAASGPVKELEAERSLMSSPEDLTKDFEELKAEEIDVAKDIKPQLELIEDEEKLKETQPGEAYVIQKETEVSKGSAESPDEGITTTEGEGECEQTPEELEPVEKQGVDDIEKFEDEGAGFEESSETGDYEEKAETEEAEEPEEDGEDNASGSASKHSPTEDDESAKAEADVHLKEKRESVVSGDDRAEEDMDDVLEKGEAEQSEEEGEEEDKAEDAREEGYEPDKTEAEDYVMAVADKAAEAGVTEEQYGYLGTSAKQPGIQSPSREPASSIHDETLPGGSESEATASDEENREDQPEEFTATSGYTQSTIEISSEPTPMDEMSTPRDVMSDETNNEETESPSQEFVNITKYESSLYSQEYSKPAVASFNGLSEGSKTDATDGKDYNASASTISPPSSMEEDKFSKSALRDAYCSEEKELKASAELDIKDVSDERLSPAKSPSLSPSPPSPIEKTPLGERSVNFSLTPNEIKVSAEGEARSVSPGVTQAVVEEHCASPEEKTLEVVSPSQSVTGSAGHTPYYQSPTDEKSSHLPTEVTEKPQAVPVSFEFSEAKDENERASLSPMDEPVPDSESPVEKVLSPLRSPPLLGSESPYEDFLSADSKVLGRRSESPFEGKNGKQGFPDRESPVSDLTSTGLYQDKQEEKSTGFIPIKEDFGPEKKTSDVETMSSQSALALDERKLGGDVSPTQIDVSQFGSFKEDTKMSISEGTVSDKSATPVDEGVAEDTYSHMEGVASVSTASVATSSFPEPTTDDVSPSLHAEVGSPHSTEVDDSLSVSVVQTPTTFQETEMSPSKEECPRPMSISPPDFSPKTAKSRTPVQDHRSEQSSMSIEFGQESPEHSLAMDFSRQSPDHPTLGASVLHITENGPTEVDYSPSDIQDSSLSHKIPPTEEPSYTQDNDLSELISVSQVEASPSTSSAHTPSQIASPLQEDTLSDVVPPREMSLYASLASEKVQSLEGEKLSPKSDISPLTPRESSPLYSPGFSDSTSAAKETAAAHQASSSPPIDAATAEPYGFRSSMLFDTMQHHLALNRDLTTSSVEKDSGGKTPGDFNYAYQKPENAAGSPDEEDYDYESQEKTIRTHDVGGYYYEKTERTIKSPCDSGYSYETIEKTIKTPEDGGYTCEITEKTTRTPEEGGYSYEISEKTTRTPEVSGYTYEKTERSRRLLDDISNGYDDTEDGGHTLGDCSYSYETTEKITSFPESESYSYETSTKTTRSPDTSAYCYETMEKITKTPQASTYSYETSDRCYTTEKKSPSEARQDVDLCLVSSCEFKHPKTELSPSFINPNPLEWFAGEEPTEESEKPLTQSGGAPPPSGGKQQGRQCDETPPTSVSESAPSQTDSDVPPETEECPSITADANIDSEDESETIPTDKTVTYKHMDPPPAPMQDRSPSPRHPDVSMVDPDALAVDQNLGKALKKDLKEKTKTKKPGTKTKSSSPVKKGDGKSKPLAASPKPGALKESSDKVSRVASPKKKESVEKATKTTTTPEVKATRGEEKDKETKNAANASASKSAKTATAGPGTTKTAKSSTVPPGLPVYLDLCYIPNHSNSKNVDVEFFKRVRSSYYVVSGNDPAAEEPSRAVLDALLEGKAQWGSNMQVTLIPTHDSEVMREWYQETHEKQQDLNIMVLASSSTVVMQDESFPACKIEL


Assays:
[1] = target: T1, insulin inhibitory receptor (inceptor) (mouse (endogenous in testis)); experiment: affinity purification with mass spectrometry; anti-inceptor antibody 2G6 (isotype control 11A7) on protein G SureBeads; mouse testis homogenate in 125 mM KCl, 10 mM EDTA, 20 mM HEPES pH 7.2, supernatant with 1% NP-40 alternative; eluted at 60°C
[2] = target: T1, insulin inhibitory receptor (inceptor) (mouse (endogenous in testis)); experiment: as above; remark: listed apart in the source

binding [1]	binding [2]	Molecule
binds	–	cathepsin Z (from UniProt Q9WUU7) (enzyme)
binds	–	microtubule-associated protein 1B (MAP1B) (from UniProt P14873 1-2464)
–	binds	adaptor protein 3 μ2 subunit (AP3M2) (protein, UniProt Q8R2R9 1-418) MIHSLFLINSSGDIFLEKHWKSVVSRSVCDYFFEAQERATEAENVPPVIPTPHHYLLSVYRHKIFFVAVIQTEVPPLFVIEFLHRVVDTFQDYFGVCSEPVIKDNVVVVYEVLEEMLDNGFPLATESNILKELIKPPTILRTVVNTITGSTNVGDQLPTGQLSVVPWRRTGVKYTNNEAYFDVVEEIDAIIDKSGSTVTAEIQGVIDACVKLTGMPDLTLSFMNPRLLDDVSFHPCVRFKRWESERILSFIPPDGNFRLLAYHVSAQNLVAIPVYVKHSISFRDSSSLGRFEITVGPKQTMGKTIEGVIVTSQMPKGVLNMSLTPSQGTHTFDPVTKMLSWDVGKINPQKLPSLKGTMGLQVGASKPDENPTINLQFKIQQLAISGLKVNRLDMYGEKYKPFKGIKYMTKAGKFQVRT
–	binds	Lysozyme-like 4 (LYZL4) (protein, UniProt Q9D925 20-145) SILGRCTVAKMLYDGGLNYFEGYSLENWVCLAYFESKFNPSAVYEDPQDGSTGFGLFQIRDNEWCGHGKNLCSVSCTALLNPNLKDTIQCAKKIVKGKHGMGAWPIWSKNCQLSDVLDRWLDGCDL

Source: article PMC10483240
